Percent effect of library compounds

Chains of the proteins cited; added tags and fusions are not shown. Residues count along the entry.
UniProt A4I591, 1-473: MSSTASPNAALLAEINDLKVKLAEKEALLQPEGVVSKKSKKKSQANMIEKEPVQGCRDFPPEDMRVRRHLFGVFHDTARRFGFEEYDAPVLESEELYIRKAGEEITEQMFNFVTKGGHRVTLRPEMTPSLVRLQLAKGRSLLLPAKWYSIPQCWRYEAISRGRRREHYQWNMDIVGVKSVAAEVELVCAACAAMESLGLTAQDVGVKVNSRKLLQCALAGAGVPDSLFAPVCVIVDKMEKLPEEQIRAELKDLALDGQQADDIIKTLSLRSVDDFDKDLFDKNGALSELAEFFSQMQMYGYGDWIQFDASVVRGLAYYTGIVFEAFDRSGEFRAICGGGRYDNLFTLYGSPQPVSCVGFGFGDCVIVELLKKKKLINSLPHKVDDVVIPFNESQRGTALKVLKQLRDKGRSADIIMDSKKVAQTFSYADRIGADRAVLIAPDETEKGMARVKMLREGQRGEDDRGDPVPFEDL
UniProt P9WFT3, whole entry: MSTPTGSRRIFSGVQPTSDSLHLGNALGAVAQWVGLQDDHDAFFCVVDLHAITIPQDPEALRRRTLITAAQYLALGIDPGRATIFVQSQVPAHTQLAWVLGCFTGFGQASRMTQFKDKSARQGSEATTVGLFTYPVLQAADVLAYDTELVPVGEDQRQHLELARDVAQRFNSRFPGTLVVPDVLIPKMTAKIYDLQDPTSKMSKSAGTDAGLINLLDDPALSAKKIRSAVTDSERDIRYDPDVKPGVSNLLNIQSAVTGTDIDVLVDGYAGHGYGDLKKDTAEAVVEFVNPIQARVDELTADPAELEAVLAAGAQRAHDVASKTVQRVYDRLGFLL

Source: ChEMBL document CHEMBL3988442, “University of Dundee, Small-Polar-MMV Screening Library” (2021).

Each number is a percent effect as filed. The controls that fix the scale are not given in the record; negative values are as filed. The compounds are a random part of those screened. A dash means the value is not listed here; it may have been measured.

A: 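Enzyme assay of histidyl-tRNA synthetase; the read-out is not stated. Target: Histidine-tRNA ligase, Leishmania infantum (UniProt A4I591). Tested at 30 µM. The record gives no direction; compounds that gave an IC50 in retests scored well above the rest, so higher reads as stronger inhibition. The assay is labelled LdHisRS but filed under L. infantum. Of about 69,000 compounds tested this way, about 410 (0.6%) reached 50% or more in at least one test.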
B: 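Whole-parasite assay of Trypanosoma brucei over 72 hours; the read-out is not stated. Tested at 30 µM. Direction is inferred from retests: higher values go with stronger inhibition. Values scatter widely below zero; nearly all retest evidence comes from the higher of the two concentrations used. Of about 64,000 compounds tested this way, about 940 (1.5%) reached 50% or more in at least one test.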
C: 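Tryptophan-tRNA ligase, Mycobacterium tuberculosis (UniProt P9WFT3). Enzyme assay of tryptophanyl-tRNA synthetase; the read-out is not stated. Tested at 10 µM. Direction is not recorded; retested compounds ran higher, which suggests that high means inhibition. About 65,000 compounds were tested under these conditions; 0.098% (about 64) showed 50% or more at least once.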

compound | A | B | C
Cc1nc2sccn2c1CN(CCCN(C)C)Cc1ccccn1.O=C(O)CC(O)(CC(=O)O)C(=O)O | - | -11.24 | -
CCn1nc(C)cc1C(=O)NCc1cccnc1N(C)C | 6.78 | -24.09 | -0.3943
Cc1nc2c(c(C)c1CC(=O)Nc1ccnn1C(C)C)c(=O)[nH]n2C | 6.612 | -20 | -4.691
CCCC1c2ccccc2CCN1CCS(C)(=O)=O (configuration not stated) | 3.109 | -4.14 | 3.783
O=C(C1SCCc2sccc21)N1CCC(O)CC1 (configuration not stated) | 7.692 | -21.82 | 0.7505
Cc1c(C(=O)NCCCS(C)(=O)=O)cccc1-c1ccccn1 | 15.66 | -38.53 | 3.673
CCOCc1ccccc1NC(=O)NC1CCN(C(=O)OCC)CC1 | 20.51 | 3.202 | -3.445
CCO[C@@H]1CC[C@H]2[C@H]1OCCN2CCOCc1ccccc1 | 14 | - | -5.315
Cc1ccc(N2CCC3(CCCN(C(=O)c4cnccn4)C3)C2)nn1 (configuration not stated) | 4.425 | -18.01 | -2.261
COCCN1CCC2(C1)CN(c1ncc(F)cn1)C2 | 18 | - | -2.928
Cc1ccc(Cl)cc1N1CCC(CNC(=O)CC(F)(F)F)C1 (configuration not stated) | -4.255 | -7.226 | -2.004
Cc1cccc(CNC(Cc2ccsc2)c2nc(C)c(C)s2)n1 (configuration not stated) | 39.72 | - | 2.108
COc1ccc(CNc2cnn(CC(F)F)c2)cc1 | 22.68 | -19.2 | -
O=C(O)C(F)(F)F.[H][C@@]12CCN(c3ccc(C)nn3)C[C@]1(C(=O)NC(C)C)CCO2 | - | 19.01 | -
CCN1CC(C(=O)NCCn2cccc2)CC1=O (configuration not stated) | 9.677 | -26.96 | -0.4504
CCC1CCCN(Cc2nc3ccccc3c(=O)[nH]2)C1 (configuration not stated) | 21.98 | -59.72 | 1.192
COc1cc(N2CCC3(CC2)CC(N2CCOCC2)C3)ncn1.O=C(O)C(F)(F)F | - | -25.08 | -
O=C(O)C(F)(F)F.[H][C@]12CC[C@@]3(N=C(C)N(CC4CC4)C3=O)[C@@]1([H])CN(CC(=O)N(C)C)C2 | - | -11.91 | -
CN(C)CC(=O)N1CC2(CCN(C(=O)Nc3ccccc3)C2)C1.O=C(O)C(F)(F)F | - | 2.347 | -
Cc1cnc2c(c1NCc1ccncc1)c(=O)n(C)c(=O)n2C | 13.46 | -83.05 | -1.069
Cc1nn(C)c(C)c1C1COCCN1c1ncnc2sccc12 (configuration not stated) | 6.796 | -14.54 | -4.085
O=C(CN1CCOCC1)Nc1ncc(Br)cc1Br | -25.84 | -9.249 | 4.126
CN(CC(=O)NCC(CCO)c1ccccc1)C(=O)OC(C)(C)C (configuration not stated) | 1.613 | -40.5 | -0.404
COCCN1CCCn2c(nc(CNS(C)(=O)=O)cc2=O)C1 | 7.921 | - | -
Cc1ccc(OCC2CCCN(CC3CCOCC3)C2)cc1 (configuration not stated) | 5.556 | -65.33 | -3.361
CCCN(C)C(=O)Nc1ccc(C(=O)NCCC(=O)OC)cc1 | 18.75 | -16.39 | 2.999
c1ncc(Nc2nccc(C3CCCCN3CC3CCCCC3)n2)cn1 (configuration not stated) | 8.029 | -38.28 | -2.643
O=C(O)C(F)(F)F.[H][C@@]12CN(Cc3csc(C)n3)CCO[C@]1([H])CN(C(=O)CC1CC1)C2 | - | 48.86 | -
Cl.O=C(CCn1c(C(F)(F)F)cc2cccnc21)N1CCOCC1 | - | -52.3 | -
Cc1nc(-c2c(C)noc2C)cc(C2CCN(CC(=O)N(C)C)CC2)n1 | 8.633 | -5.262 | -1.042
CC(=O)C(C)CC(=O)N(Cc1cccc(C)c1)C(C)C (configuration not stated) | 13.43 | 4.805 | -0.6369
CC(C)(CNC(=O)NCCc1ccn(-c2ccccc2)n1)C(N)=O | 3.419 | - | 2.555
Cc1ccc(CN2CCOC3(CCCN(c4cccc(F)c4)C3)C2)o1 (configuration not stated) | 21 | - | -2.957
COCCN1CCC(CN(CC2CCCO2)C(=O)CNC(C)=O)CC1 (configuration not stated) | 6.742 | 3.281 | 3.228
Cc1nc(CN2CCC3(CCN(Cc4cnn(C)c4)CC3)C2=O)cs1 | -1.389 | - | 15.34
CN(Cc1ccco1)[C@@H]1CN(Cc2cccnc2)C[C@@H]2CCCO[C@@H]21 | 9.091 | - | -1.221
CC(CCN1CCCC1=O)NCc1cnc(C2CCC2)s1 (configuration not stated) | 3.226 | -36.55 | -2.828
CN(C)C(=O)N1CCN(C(=O)c2ccn3ccnc3c2)CC1 | 16.87 | -4.537 | -3.294
COCc1noc(C2(c3ccc(F)cc3)CCOCC2)n1 | -13.46 | -23.82 | -4.567
O=C(CCc1nccs1)N1CCC(N2CCNC2=O)CC1 | 19.23 | -90.61 | 1.354
Cn1cccc1C(=O)N1C[C@@H]2COC[C@]2(CNS(C)(=O)=O)C1 | 6.195 | - | 1.036
COCCN(Cc1ccc(C)o1)C(=O)Nc1ncc(C)s1 | 2.381 | -51.42 | -3.062
COCCNC(=O)c1ccc(NCc2c(C)noc2C)cc1Cl | 17.39 | -13.08 | 1.125
CC1(c2ccc(Br)cc2)CC(=O)N(CC(N)=O)C1=O (configuration not stated) | 1.266 | -17.28 | -0.8961
O=C(NCCOC1CCCCC1)c1ccc(-c2ccco2)[nH]c1=O | -0.8772 | -39.83 | 10.59
CCc1csc(C2CCCN(C(=O)c3ccco3)C2)n1 (configuration not stated) | 0 | -38.73 | 7.498
CO[C@@H]1CO[C@@]2(CCCN(Cc3nc(C)cs3)C2)C1 | 11.7 | - | 2.532
CCC1CN(C(=O)c2[nH]nc(C)c2Br)CCO1 (configuration not stated) | 17.14 | -23.58 | -2.873
CC[C@@H](CO)NC(=O)c1cc(COc2ccc(OC)cc2Cl)[nH]n1 | 20.16 | -4.965 | 2.874
CN(C)Cc1cc(CC2(NCc3ccccc3Cl)COC2)no1 | 22.97 | -8.951 | -0.3794
Cn1cc(C(=O)NCc2cncc3c2CCN(CC2CC2)C3)cn1 | 0 | - | -
O=C(O)C(F)(F)F.OCCN1CCC(F)(F)C2(CCN(c3cnccn3)C2)C1 (configuration not stated) | - | -43.81 | -
O=C(O)C(F)(F)F.[H][C@@]12CN(C(=O)Cc3cccs3)C[C@]1([H])OCCN2CC1CCCO1 (some centres not stated) | - | -22.27 | -
COc1ccccc1-c1cc(C(F)(F)F)c2c(C)nn(CC(=O)O)c2n1 | 0 | -24.8 | -1.417
CN(Cc1cccs1)C(=O)CN(C)C1CCc2ccccc21 (configuration not stated) | 8.772 | -14.34 | -0.6053
Cc1cccc2c1nc1n2[C@@H](CNC(=O)c2ccncc2)COC1 | 14.86 | -5.463 | -2.807
CC(C)Oc1ncccc1CNC(=O)N1CCCC1c1ccsc1 (configuration not stated) | 7.143 | -26.46 | 23.23
CCNC(=O)C1(Cc2cc(-c3ccccc3)no2)CCCN(C(C)C)C1 (configuration not stated) | 14.29 | 12.92 | -1.903
O=C(NCc1cc(-c2ccccc2)no1)NC1CCCCNC1=O (configuration not stated) | 20 | 6.337 | -0.08937
COc1cc(-c2nccn2C(C)CCn2cccn2)cc2c1OCO2 (configuration not stated) | 9.677 | -4.074 | 1.911
COc1ccc(NC(=O)Cn2cc(-c3ccccc3)ncc2=O)cn1 | 23.38 | -5.515 | 0
Cc1nc(-c2ccco2)ccc1C(=O)N1CCCC1Cn1cccn1 (configuration not stated) | 18.92 | -12.25 | 1.267
Cl.[H][C@@]12NCCCCC[C@@]1([H])N(S(=O)(=O)N1CCCC1)C[C@H]2c1cccc(F)c1 | - | -12.23 | -
COc1cc2c(cc1OC)CN(C(C(=O)O)c1c(C)nn(C)c1C)CC2 (configuration not stated) | 13.43 | -27.31 | 0.09099
Cc1cc(C)c2ncc(C#N)c(N3CCS(=O)(=O)CC3)c2c1 | 2.703 | 9.816 | -5.698
N#CCCN(CCC#N)Cc1ccc(Br)c2cccnc12 | 17.24 | -19.7 | 3.997

For reference, 8 entries once more:

{"compound": "Cn1cc(C(=O)NCc2cncc3c2CCN(CC2CC2)C3)cn1", "A": 0}
{"compound": "COCCN1CCC2(C1)CN(c1ncc(F)cn1)C2", "A": 18, "C": -2.928}
{"compound": "Cl.[H][C@@]12NCCCCC[C@@]1([H])N(S(=O)(=O)N1CCCC1)C[C@H]2c1cccc(F)c1", "B": -12.23}
{"compound": "CC1(c2ccc(Br)cc2)CC(=O)N(CC(N)=O)C1=O", "stereo": "configuration not stated", "A": 1.266, "B": -17.28, "C": -0.8961}
{"compound": "Cc1cccc2c1nc1n2[C@@H](CNC(=O)c2ccncc2)COC1", "A": 14.86, "B": -5.463, "C": -2.807}
{"compound": "O=C(NCc1cc(-c2ccccc2)no1)NC1CCCCNC1=O", "stereo": "configuration not stated", "A": 20, "B": 6.337, "C": -0.08937}
{"compound": "CN(Cc1cccs1)C(=O)CN(C)C1CCc2ccccc21", "stereo": "configuration not stated", "A": 8.772, "B": -14.34, "C": -0.6053}
{"compound": "Cc1cc(C)c2ncc(C#N)c(N3CCS(=O)(=O)CC3)c2c1", "A": 2.703, "B": 9.816, "C": -5.698}